The labels stand for the following.
T1: GLD-1 (C. elegans (endogenous in worm lysate)) (UniProt Q17339)
T1 sequence: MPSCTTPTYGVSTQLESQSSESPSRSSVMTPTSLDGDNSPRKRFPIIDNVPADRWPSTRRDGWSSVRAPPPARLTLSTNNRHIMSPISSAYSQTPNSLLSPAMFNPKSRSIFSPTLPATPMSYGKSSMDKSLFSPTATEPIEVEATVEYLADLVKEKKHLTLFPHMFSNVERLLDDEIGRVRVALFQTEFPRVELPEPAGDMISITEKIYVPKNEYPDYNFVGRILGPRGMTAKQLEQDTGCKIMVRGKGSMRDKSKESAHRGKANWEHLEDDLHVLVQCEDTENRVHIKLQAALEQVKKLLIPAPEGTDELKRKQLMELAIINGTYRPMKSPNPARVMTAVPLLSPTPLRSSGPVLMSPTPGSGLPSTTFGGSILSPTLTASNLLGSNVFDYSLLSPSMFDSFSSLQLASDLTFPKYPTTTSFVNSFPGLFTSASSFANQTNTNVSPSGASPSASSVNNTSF

Sequences of proteins named here, by UniProt entry; tags and fusion partners are left off. Residues count along the entry.
UniProt P18948, residues 16-1651: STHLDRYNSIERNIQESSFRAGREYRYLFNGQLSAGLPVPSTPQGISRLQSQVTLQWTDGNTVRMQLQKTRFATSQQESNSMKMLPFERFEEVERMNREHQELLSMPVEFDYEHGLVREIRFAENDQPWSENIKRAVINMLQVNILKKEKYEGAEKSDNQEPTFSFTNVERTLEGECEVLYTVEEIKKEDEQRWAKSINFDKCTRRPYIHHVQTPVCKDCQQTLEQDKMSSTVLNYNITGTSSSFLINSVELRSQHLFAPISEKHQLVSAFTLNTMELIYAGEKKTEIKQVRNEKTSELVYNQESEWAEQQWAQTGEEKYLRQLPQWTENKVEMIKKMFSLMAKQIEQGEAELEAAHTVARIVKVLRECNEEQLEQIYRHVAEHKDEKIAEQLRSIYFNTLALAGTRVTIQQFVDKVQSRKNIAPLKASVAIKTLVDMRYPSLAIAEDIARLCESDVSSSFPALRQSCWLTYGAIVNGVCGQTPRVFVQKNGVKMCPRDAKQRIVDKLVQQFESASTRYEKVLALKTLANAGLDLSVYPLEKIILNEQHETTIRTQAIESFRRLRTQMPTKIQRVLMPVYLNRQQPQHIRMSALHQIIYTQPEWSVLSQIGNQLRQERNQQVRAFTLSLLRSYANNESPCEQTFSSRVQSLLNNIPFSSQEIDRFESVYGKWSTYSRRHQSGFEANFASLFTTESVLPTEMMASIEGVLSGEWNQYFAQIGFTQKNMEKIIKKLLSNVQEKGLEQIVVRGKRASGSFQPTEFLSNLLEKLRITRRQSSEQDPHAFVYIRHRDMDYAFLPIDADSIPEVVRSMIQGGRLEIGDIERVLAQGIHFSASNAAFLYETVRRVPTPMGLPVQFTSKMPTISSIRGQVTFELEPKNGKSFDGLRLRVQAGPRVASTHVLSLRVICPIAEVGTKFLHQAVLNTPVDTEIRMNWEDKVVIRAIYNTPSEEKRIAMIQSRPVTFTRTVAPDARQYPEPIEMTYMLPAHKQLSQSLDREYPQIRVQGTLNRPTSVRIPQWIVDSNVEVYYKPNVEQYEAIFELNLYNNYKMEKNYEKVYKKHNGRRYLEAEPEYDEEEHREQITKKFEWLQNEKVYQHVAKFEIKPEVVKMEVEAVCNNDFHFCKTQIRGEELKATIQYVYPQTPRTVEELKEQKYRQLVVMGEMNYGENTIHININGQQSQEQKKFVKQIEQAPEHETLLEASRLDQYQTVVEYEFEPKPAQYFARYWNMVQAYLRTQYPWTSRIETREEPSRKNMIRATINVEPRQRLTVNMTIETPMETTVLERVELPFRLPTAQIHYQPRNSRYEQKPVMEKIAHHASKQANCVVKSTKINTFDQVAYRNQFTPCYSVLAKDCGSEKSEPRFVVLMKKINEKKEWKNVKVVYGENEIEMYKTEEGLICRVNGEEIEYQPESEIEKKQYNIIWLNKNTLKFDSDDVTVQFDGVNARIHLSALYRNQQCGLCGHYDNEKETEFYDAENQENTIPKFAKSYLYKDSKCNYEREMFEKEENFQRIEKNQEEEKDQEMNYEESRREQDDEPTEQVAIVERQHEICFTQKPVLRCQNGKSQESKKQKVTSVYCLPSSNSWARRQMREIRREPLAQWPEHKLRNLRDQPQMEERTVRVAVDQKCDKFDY
UniProt P05690, residues 16-1613: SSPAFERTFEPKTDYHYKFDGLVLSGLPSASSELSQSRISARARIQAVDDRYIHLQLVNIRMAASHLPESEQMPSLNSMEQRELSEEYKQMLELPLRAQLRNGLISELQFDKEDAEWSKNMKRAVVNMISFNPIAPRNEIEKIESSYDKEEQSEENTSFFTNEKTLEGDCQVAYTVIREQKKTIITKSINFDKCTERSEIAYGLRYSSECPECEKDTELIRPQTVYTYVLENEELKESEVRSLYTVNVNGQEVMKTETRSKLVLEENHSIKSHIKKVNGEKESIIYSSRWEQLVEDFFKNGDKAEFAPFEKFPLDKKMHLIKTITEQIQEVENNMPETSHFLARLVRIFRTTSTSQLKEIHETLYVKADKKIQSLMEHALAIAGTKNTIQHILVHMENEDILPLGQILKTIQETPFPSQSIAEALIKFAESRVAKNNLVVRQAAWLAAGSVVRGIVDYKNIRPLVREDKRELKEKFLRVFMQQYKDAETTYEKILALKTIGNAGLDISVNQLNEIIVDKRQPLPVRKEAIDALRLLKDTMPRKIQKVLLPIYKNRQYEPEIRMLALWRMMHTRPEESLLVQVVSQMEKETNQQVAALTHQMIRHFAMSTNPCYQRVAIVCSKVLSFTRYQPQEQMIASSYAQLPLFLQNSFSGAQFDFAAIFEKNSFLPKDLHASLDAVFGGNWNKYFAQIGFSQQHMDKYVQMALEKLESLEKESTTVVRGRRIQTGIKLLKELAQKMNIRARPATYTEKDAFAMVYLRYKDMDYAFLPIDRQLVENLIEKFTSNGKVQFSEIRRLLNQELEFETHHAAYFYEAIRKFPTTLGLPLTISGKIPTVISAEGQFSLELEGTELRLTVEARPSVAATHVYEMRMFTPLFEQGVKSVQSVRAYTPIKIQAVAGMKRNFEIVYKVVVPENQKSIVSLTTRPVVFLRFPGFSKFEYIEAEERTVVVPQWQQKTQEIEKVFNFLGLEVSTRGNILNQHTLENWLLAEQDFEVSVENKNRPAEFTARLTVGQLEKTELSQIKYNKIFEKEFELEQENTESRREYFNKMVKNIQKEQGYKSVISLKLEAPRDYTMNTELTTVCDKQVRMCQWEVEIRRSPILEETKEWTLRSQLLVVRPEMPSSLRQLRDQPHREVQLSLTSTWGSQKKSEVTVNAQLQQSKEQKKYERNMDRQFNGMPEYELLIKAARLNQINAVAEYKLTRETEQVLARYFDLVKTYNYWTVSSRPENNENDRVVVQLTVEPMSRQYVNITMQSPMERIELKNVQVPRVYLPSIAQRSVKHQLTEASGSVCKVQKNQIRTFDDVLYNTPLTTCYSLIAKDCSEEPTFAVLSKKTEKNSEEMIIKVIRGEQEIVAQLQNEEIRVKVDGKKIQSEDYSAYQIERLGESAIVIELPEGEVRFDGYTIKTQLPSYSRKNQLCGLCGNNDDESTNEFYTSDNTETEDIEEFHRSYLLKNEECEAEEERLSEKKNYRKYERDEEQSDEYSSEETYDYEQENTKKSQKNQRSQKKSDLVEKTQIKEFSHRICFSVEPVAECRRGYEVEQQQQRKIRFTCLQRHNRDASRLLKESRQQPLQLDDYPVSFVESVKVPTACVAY

B1: PAB-1 (protein, UniProt Q9U302 1-646)
chain: MEMNVAAPAAAVAGAAAPQPGQNQTGSSYTMASLYVGDLHPDVNESILFEKFSAAGPVLSIRVCRDNATRLSLGYAYVNFQQPADAERAMDTMNFEALHGKPMRIMWSQRDPAMRRSGAGNIFIKNLDKVIDNKSIYDTFSLFGNILSCKVAIDEDGFSKGYGFVHFETEEAAQNAIQKVNGMLLAGKKVFVGKFQPRAQRNRELGETAKQFTNVYVKNFGDHYNKETLEKLFAKFGNITSCEVMTVEGKSKGFGFVAFANPEEAETAVQALHDSTIEGTDLKLHVCRAQKKSERHAELKKKHEQHKAERMQKYQGVNLYVKNLDETVDDDGLKKQFESYGNITSAKVMTDENGRSKGFGFVCFEKPEEATSAVTEMNSKMVCSKPLYVAIAQRKEDRRAQLASQYMQRLASMRMHGNVPGAAMYNPTQPGPGYYVANPMQQQRNFAGGQQMVRPGGRWGMQNQYPVQNQYMMAQGPGVYQNRMGRPQNQQGGPRGPPQQYNQVAQGGVRMQGPPRTQNPGVQQQNVPRPPQQQQQQRPAPTGPKAPPQPYQAYQQRPQGIVIGGQEPLTSAMLAAAAPQEQKQLLGERIYALIEKLYPGHKDAGKITGMMLEIDNSELIMMLQDSELFRSKVDEAASVLVSAQKQ
B2: CAR-1 (protein, UniProt Q9XW17 1-340)
chain: MSNQTPYIGSKISLISKLDIRYEGILYTVDTNDSTIALAKVRSFGTEKRPTANPVAARDDVYEYIIFKASDIKDLIVCDTPKMANIGGGLPYDPAIISVSSRSAPASDGAPAASAGSSRAGTPSRNSPLGQIIQNQRPGRGGYQQNFQANRGYNNYRGGFAGGYNNQRGHNNYGVPRVNHREKLKFESDFDFEKANEKFQEVLVDNLEKLNIEDKAEPEVEEKKDAAFYDKKTSFFDNISCESLEKAEGKTGRPDWKKERETNQETFGHNAVRSLNYRRGFGGRGRGGNRGYGGYNNGYQHQHQHRGGYNGGYRQNNGGYRRGGYAPRDNQGNTAAAAEQ

These are yes or no findings as the source states them, for the method shown. Binding seen in cells or lysates may run through a third protein. Here binding means that the protein was enriched with, or labelled near, the bait; the list need not be complete. A no says only that the protein was not detected with the bait.

This assay concerns the target T1, GLD-1 (C. elegans (endogenous in worm lysate)). The assay can be described thus: affinity purification with mass spectrometry; anti-GLD-1 (mouse monoclonal) IPs from worm lysate compared with anti-FLAG IPs; SDS-PAGE, in-gel trypsin digest, nanoLC with LTQ Orbitrap Velos.
“CEY-3 (C. elegans (endogenous in worm lysate))”: the binding result was “binds”. The result for “CEY-4 (C. elegans (endogenous in worm lysate))” reads “binds”; that for “CEY-1 (C. elegans (endogenous in worm lysate))”, “binds”; that for VIT-6 (from UniProt P18948 16-1651), “no binding”. As for “CEY-2 (C. elegans (endogenous in worm lysate))”, the binding result is given as “binds”. As for VIT-2 (from UniProt P05690 16-1613), the binding entry is given as “no binding”. As for “HSP-60 (C. elegans (endogenous in worm lysate))”, the binding entry is listed as “no binding”. Regarding B1, the binding entry was “binds”. In the case of B2 it was “binds”.

The values are drawn from PMC3364957.
